From paper PMC9584938
Results are given in words; binding and its absence hold for the method and conditions named. In cells and extracts the contact can be indirect. Some binding calls cover weakened binding; strength is not graded here.

T1: FLOT2 (human (endogenous in HEK293)) (UniProt Q14254)
T1 sequence: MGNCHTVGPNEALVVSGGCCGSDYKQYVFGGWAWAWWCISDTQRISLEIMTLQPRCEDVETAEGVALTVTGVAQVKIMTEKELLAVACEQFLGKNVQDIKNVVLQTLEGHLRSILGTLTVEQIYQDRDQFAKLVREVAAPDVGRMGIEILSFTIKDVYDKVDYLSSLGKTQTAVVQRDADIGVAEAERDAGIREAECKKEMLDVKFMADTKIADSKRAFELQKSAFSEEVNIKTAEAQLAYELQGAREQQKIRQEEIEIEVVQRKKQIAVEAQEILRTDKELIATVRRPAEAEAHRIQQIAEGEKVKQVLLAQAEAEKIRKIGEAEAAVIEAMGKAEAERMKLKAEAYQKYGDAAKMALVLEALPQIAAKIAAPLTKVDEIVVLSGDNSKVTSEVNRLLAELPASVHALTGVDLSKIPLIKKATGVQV


Experiments:
[1] = molecular target: FLOT1 (human (endogenous in HEK293)) (UniProt O75955); test: co-IP; HEK293 lysate (RIPA or 1% NP-40 lysis buffer), 1.6 mg protein with 3 µg antibody overnight at 4 °C, Protein A beads, western blot; control: empty beads
[2] = molecular target: T1, FLOT2 (human (endogenous in HEK293)); test: as above

| binding [1] | binding [2] | Binder |
| --- | --- | --- |
| binds | – | VANGL1 (protein, UniProt Q8TAA9 1-524) MDTESTYSGYSYYSSHSKKSHRQGERTRERHKSPRNKDGRGSEKSVTIQPPTGEPLLGNDSTRTEEVQDDNWGETTTAITGTSEHSISQEDIARISKDMEDSVGLDCKRYLGLTVASFLGLLVFLTPIAFILLPPILWRDELEPCGTICEGLFISMAFKLLILLIGTWALFFRKRRADMPRVFVFRALLLVLIFLFVVSYWLFYGVRILDSRDRNYQGIVQYAVSLVDALLFIHYLAIVLLELRQLQPMFTLQVVRSTDGESRFYSLGHLSIQRAALVVLENYYKDFTIYNPNLLTASKFRAAKHMAGLKVYNVDGPSNNATGQSRAMIAAAARRRDSSHNELYYEEAEHERRVKKRKARLVVAVEEAFIHIQRLQAEEQQKAPGEVMDPREAAQAIFPSMARALQKYLRITRQQNYHSMESILQHLAFCITNGMTPKAFLERYLSAGPTLQYDKDRWLSTQWRLVSDEAVTNGLRDGIVFVLKCLDFSLVVNVKKIPFIILSEEFIDPKSHKFVLRLQSETSV |
| binds | – | PLSCR1 (protein, UniProt O15162 1-318) MDKQNSQMNASHPETNLPVGYPPQYPPTAFQGPPGYSGYPGPQVSYPPPPAGHSGPGPAGFPVPNQPVYNQPVYNQPVGAAGVPWMPAPQPPLNCPPGLEYLSQIDQILIHQQIELLEVLTGFETNNKYEIKNSFGQRVYFAAEDTDCCTRNCCGPSRPFTLRIIDNMGQEVITLERPLRCSSCCCPCCLQEIEIQAPPGVPIGYVIQTWHPCLPKFTIQNEKREDVLKISGPCVVCSCCGDVDFEIKSLDEQCVVGKISKHWTGILREAFTDADNFGIQFPLDLDVKMKAVMIGACFLIDFMFFESTGSQEQKSGVW |

Continued, binder first:

| Binder | binding [1] | binding [2] |
| --- | --- | --- |
| LPHN2 (latrophilin) (receptor, UniProt O95490 26-1459) FSRAALPFGLVRRELSCEGYSIDLRCPGSDVIMIESANYGRTDDKICDADPFQMENTDCYLPDAFKIMTQRCNNRTQCIVVTGSDVFPDPCPGTYKYLEVQYECVPYIFVCPGTLKAIVDSPCIYEAEQKAGAWCKDPLQAADKIYFMPWTPYRTDTLIEYASLEDFQNSRQTTTYKLPNRVDGTGFVVYDGAVFFNKERTRNIVKFDLRTRIKSGEAIINYANYHDTSPYRWGGKTDIDLAVDENGLWVIYATEQNNGMIVISQLNPYTLRFEATWETVYDKRAASNAFMICGVLYVVRSVYQDNESETGKNSIDYIYNTRLNRGEYVDVPFPNQYQYIAAVDYNPRDNQLYVWNNNFILRYSLEFGPPDPAQVPTTAVTITSSAELFKTIISTTSTTSQKGPMSTTVAGSQEGSKGTKPPPAVSTTKIPPITNIFPLPERFCEALDSKGIKWPQTQRGMMVERPCPKGTRGTASYLCMISTGTWNPKGPDLSNCTSHWVNQLAQKIRSGENAASLANELAKHTKGPVFAGDVSSSVRLMEQLVDILDAQLQELKPSEKDSAGRSYNKLQKREKTCRAYLKAIVDTVDNLLRPEALESWKHMNSSEQAHTATMLLDTLEEGAFVLADNLLEPTRVSMPTENIVLEVAVLSTEGQIQDFKFPLGIKGAGSSIQLSANTVKQNSRNGLAKLVFIIYRSLGQFLSTENATIKLGADFIGRNSTIAVNSHVISVSINKESSRVYLTDPVLFTLPHIDPDNYFNANCSFWNYSERTMMGYWSTQGCKLVDTNKTRTTCACSHLTNFAILMAHREIAYKDGVHELLLTVITWVGIVISLVCLAICIFTFCFFRGLQSDRNTIHKNLCINLFIAEFIFLIGIDKTKYAIACPIFAGLLHFFFLAAFAWMCLEGVQLYLMLVEVFESEYSRKKYYYVAGYLFPATVVGVSAAIDYKSYGTEKACWLHVDNYFIWSFIGPVTFIILLNIIFLVITLCKMVKHSNTLKPDSSRLENIKSWVLGAFALLCLLGLTWSFGLLFINEETIVMAYLFTIFNAFQGVFIFIFHCALQKKVRKEYGKCFRHSYCCGGLPTESPHSSVKASTTRTSARYSSGTQSRIRRMWNDTVRKQSESSFISGDINSTSTLNQGMTGNYLLTNPLLRPHGTNNPYNTLLAETVVCNAPSAPVFNSPGHSLNNARDTSAMDTLPLNGNFNNSYSLHKGDYNDSVQVVDCGLSLNDTAFEKMIISELVHNNLRGSSKTHNLELTLPVKPVIGGSSSEDDAIVADASSLMHSDNPGLELHHKELEAPLIPQRTHSLLYQPQKKVKSEGTDSYVSQLTAEAEDHLQSPNRDSLYTSMPNLRDSPYPESSPDMEEDLSPSRRSENEDIYYKSMPNLGAGHQLQMCYQISRGNSDGYIIPINKEGCIPEGDVREGQMQLVTSL | binds | binds |
| LPHN1 (latrophilin) (receptor, UniProt O94910 25-1474) LSRAGLPFGLMRRELACEGYPIELRCPGSDVIMVENANYGRTDDKICDADPFQMENVQCYLPDAFKIMSQRCNNRTQCVVVAGSDAFPDPCPGTYKYLEVQYDCVPYKVEQKVFVCPGTLQKVLEPTSTHESEHQSGAWCKDPLQAGDRIYVMPWIPYRTDTLTEYASWEDYVAARHTTTYRLPNRVDGTGFVVYDGAVFYNKERTRNIVKYDLRTRIKSGETVINTANYHDTSPYRWGGKTDIDLAVDENGLWVIYATEGNNGRLVVSQLNPYTLRFEGTWETGYDKRSASNAFMVCGVLYVLRSVYVDDDSEAAGNRVDYAFNTNANREEPVSLTFPNPYQFISSVDYNPRDNQLYVWNNYFVVRYSLEFGPPDPSAGPATSPPLSTTTTARPTPLTSTASPAATTPLRRAPLTTHPVGAINQLGPDLPPATAPVPSTRRPPAPNLHVSPELFCEPREVRRVQWPATQQGMLVERPCPKGTRGIASFQCLPALGLWNPRGPDLSNCTSPWVNQVAQKIKSGENAANIASELARHTRGSIYAGDVSSSVKLMEQLLDILDAQLQALRPIERESAGKNYNKMHKRERTCKDYIKAVVETVDNLLRPEALESWKDMNATEQVHTATMLLDVLEEGAFLLADNVREPARFLAAKENVVLEVTVLNTEGQVQELVFPQEEYPRKNSIQLSAKTIKQNSRNGVVKVVFILYNNLGLFLSTENATVKLAGEAGPGGPGGASLVVNSQVIAASINKESSRVFLMDPVIFTVAHLEDKNHFNANCSFWNYSERSMLGYWSTQGCRLVESNKTHTTCACSHLTNFAVLMAHREIYQGRINELLLSVITWVGIVISLVCLAICISTFCFLRGLQTDRNTIHKNLCINLFLAELLFLVGIDKTQYEIACPIFAGLLHYFFLAAFSWLCLEGVHLYLLLVEVFESEYSRTKYYYLGGYCFPALVVGIAAAIDYRSYGTEKACWLRVDNYFIWSFIGPVSFVIVVNLVFLMVTLHKMIRSSSVLKPDSSRLDNIKSWALGAIALLFLLGLTWAFGLLFINKESVVMAYLFTTFNAFQGVFIFVFHCALQKKVHKEYSKCLRHSYCCIRSPPGGTHGSLKTSAMRSNTRYYTGTQSRIRRMWNDTVRKQTESSFMAGDINSTPTLNRGTMGNHLLTNPVLQPRGGTSPYNTLIAESVGFNPSSPPVFNSPGSYREPKHPLGGREACGMDTLPLNGNFNNSYSLRSGDFPPGDGGPEPPRGRNLADAAAFEKMIISELVHNNLRGSSSAAKGPPPPEPPVPPVPGGGGEEEAGGPGGADRAEIELLYKALEEPLLLPRAQSVLYQSDLDESESCTAEDGATSRPLSSPPGRDSLYASGANLRDSPSYPDSSPEGPSEALPPPPPAPPGPPEIYYTSRPPALVARNPLQGYYQVRRPSHEGYLAAPGLEGPGPDGDGQMQLVTSL | binds | binds |
| LPHN3 (latrophilin) (receptor, UniProt Q9HAR2 20-1447) FSRAPIPMAVVRRELSCESYPIELRCPGTDVIMIESANYGRTDDKICDSDPAQMENIRCYLPDAYKIMSQRCNNRTQCAVVAGPDVFPDPCPGTYKYLEVQYECVPYKVEQKVFLCPGLLKGVYQSEHLFESDHQSGAWCKDPLQASDKIYYMPWTPYRTDTLTEYSSKDDFIAGRPTTTYKLPHRVDGTGFVVYDGALFFNKERTRNIVKFDLRTRIKSGEAIIANANYHDTSPYRWGGKSDIDLAVDENGLWVIYATEQNNGKIVISQLNPYTLRIEGTWDTAYDKRSASNAFMICGILYVVKSVYEDDDNEATGNKIDYIYNTDQSKDSLVDVPFPNSYQYIAAVDYNPRDNLLYVWNNYHVVKYSLDFGPLDSRSGQAHHGQVSYISPPIHLDSELERPSVKDISTTGPLGMGSTTTSTTLRTTTLSPGRSTTPSVSGRRNRSTSTPSPAVEVLDDMTTHLPSASSQIPALEESCEAVEAREIMWFKTRQGQIAKQPCPAGTIGVSTYLCLAPDGIWDPQGPDLSNCSSPWVNHITQKLKSGETAANIARELAEQTRNHLNAGDITYSVRAMDQLVGLLDVQLRNLTPGGKDSAARSLNKAMVETVNNLLQPQALNAWRDLTTSDQLRAATMLLHTVEESAFVLADNLLKTDIVRENTDNIKLEVARLSTEGNLEDLKFPENMGHGSTIQLSANTLKQNGRNGEIRVAFVLYNNLGPYLSTENASMKLGTEALSTNHSVIVNSPVITAAINKEFSNKVYLADPVVFTVKHIKQSEENFNPNCSFWSYSKRTMTGYWSTQGCRLLTTNKTHTTCSCNHLTNFAVLMAHVEVKHSDAVHDLLLDVITWVGILLSLVCLLICIFTFCFFRGLQSDRNTIHKNLCISLFVAELLFLIGINRTDQPIACAVFAALLHFFFLAAFTWMFLEGVQLYIMLVEVFESEHSRRKYFYLVGYGMPALIVAVSAAVDYRSYGTDKVCWLRLDTYFIWSFIGPATLIIMLNVIFLGIALYKMFHHTAILKPESGCLDNIKSWVIGAIALLCLLGLTWAFGLMYINESTVIMAYLFTIFNSLQGMFIFIFHCVLQKKVRKEYGKCLRTHCCSGKSTESSIGSGKTSGSRTPGRYSTGSQSRIRRMWNDTVRKQSESSFITGDINSSASLNREGLLNNARDTSVMDTLPLNGNHGNSYSIASGEYLSNCVQIIDRGYNHNETALEKKILKELTSNYIPSYLNNHERSSEQNRNLMNKLVNNLGSGREDDAIVLDDATSFNHEESLGLELIHEESDAPLLPPRVYSTENHQPHHYTRRRIPQDHSESFFPLLTNEHTEDLQSPHRDSLYTSMPTLAGVAATESVTTSTQTEPPPAKCGDAEDVYYKSMPNLGSRNHVHQLHTYYQLGRGSSDGFIVPPNKDGTPPEGSSKGPAHLVTSL | binds | binds |
